For two molecules, binding results are on record in paper PMC9753422.

Chains of the proteins cited; added tags and fusions are not shown.
UniProt P35637: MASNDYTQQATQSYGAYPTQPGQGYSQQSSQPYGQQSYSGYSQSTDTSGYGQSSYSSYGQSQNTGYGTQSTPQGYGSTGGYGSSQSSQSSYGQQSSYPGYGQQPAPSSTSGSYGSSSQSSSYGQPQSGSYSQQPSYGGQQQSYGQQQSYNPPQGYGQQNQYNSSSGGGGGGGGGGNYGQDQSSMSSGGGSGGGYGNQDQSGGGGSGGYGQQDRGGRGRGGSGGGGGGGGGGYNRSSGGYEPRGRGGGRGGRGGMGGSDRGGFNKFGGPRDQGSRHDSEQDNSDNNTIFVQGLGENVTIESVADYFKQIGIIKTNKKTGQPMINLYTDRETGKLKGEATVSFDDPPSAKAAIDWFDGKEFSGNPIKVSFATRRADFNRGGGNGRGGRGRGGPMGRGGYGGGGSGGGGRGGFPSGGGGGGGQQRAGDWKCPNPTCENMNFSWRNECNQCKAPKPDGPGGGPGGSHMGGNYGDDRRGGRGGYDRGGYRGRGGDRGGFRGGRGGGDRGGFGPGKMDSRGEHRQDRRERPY

No constants are given. Whether binding was seen depends on the method and setting. In cells and extracts the contact can be indirect. Some binding calls cover weakened binding; strength is not graded here.

The target in experiment [1] is T1, acetyl-CoA acetyltransferase 1 (human (endogenous in LNCaP and PC3)) (UniProt P24752).
T1 sequence: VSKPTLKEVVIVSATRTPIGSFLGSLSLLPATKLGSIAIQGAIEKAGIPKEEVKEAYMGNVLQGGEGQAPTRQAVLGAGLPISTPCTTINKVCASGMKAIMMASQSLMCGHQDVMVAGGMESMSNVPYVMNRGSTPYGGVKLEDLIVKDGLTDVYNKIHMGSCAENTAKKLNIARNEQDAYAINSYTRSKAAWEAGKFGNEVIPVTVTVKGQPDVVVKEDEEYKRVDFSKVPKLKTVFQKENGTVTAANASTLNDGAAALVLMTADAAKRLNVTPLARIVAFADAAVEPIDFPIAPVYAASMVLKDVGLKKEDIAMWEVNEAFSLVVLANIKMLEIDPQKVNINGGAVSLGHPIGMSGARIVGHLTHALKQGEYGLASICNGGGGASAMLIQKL
The experiment is described as follows: co-IP; endogenous proteins in LNCaP or PC3 cell lysate; anti-ACAT1 or anti-FUS antibody (8 ug) overnight at 4 °C, anti-mouse/rabbit IgG as control, protein A/G beads, immunoblotting. Background: In western blotting, separated proteins are transferred to a membrane and probed.

For experiment [2], the target named is fused in sarcoma (FUS) RNA-binding protein (human (endogenous in LNCaP and PC3)) (UniProt P35637). The description is as above.

Turning to “fused in sarcoma (FUS) RNA-binding protein (from UniProt P35637 1-526)”, the binding result in experiment [1] is “binds”.

B1: acetyl-CoA acetyltransferase 1 (enzyme, UniProt P24752 34-427)
chain: VSKPTLKEVVIVSATRTPIGSFLGSLSLLPATKLGSIAIQGAIEKAGIPKEEVKEAYMGNVLQGGEGQAPTRQAVLGAGLPISTPCTTINKVCASGMKAIMMASQSLMCGHQDVMVAGGMESMSNVPYVMNRGSTPYGGVKLEDLIVKDGLTDVYNKIHMGSCAENTAKKLNIARNEQDAYAINSYTRSKAAWEAGKFGNEVIPVTVTVKGQPDVVVKEDEEYKRVDFSKVPKLKTVFQKENGTVTAANASTLNDGAAALVLMTADAAKRLNVTPLARIVAFADAAVEPIDFPIAPVYAASMVLKDVGLKKEDIAMWEVNEAFSLVVLANIKMLEIDPQKVNINGGAVSLGHPIGMSGARIVGHLTHALKQGEYGLASICNGGGGASAMLIQKL
Regarding B1, the binding result in experiment [2] was “binds”.
